Record: PubChem BioAssay AID1259254 (NCATS, 2017)
Purpose: 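Genome-wide screen for genes that prevent DNA re-replication in cancer cells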 (primary screen). Cell system: human HCT116 colorectal cancer cells. Reagents: single siRNA against human genes. Timing: 3 days. Read-out: 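Imaged Hoechst DNA stain sorts each cell into a cycle phase by DNA amount; per plate, G2 fraction set to 0% for non-targeting and 100% for GMNN siRNA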. Scale: G2 robust z-score and G2 cells, % of GMNN control: higher = more G2 cells, more excess DNA replication. Rule for the call: 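Active siRNAs have a G2 robust z of 5 or more median absolute deviations over the median, which in these data means about 38% or higher of GMNN control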.
In all, the deposit lists about 59,000 reagents; shown is a random part of them. In the full data, about 1,550 (2.6%) got an active call. 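G2 share is only a proxy for re-replication; each gene was hit by three separate siRNAs, and active genes were retested.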 Reagents against one gene are numbered here. Further read-outs or replicates are left out here. Not stated in the record: the amount of reagent.

| gene symbol | reagent no. | G2 robust z-score | G2 cells, % of GMNN control | call |
| --- | --- | --- | --- | --- |
| PPP1R26 (protein phosphatase 1 regulatory subunit 26) | 1 | -0.96 | -3.79 | inactive |
| PPP1R26 (protein phosphatase 1 regulatory subunit 26) | 2 | -0.166 | 1.8 | inactive |
| PPP1R26 (protein phosphatase 1 regulatory subunit 26) | 3 | 0.913 | 9.39 | inactive |
| ATP2B4 (ATPase plasma membrane Ca2+ transporting 4) | 1 | -0.747 | -2.29 | inactive |
| ATP2B4 (ATPase plasma membrane Ca2+ transporting 4) | 2 | 1.99 | 17 | inactive |
| ATP2B4 (ATPase plasma membrane Ca2+ transporting 4) | 3 | 1.04 | 10.3 | inactive |
| ATRX (ATRX chromatin remodeler) | 1 | 2.97 | 23.9 | inactive |
| ATRX (ATRX chromatin remodeler) | 2 | 0.134 | 3.91 | inactive |
| ATRX (ATRX chromatin remodeler) | 3 | -0.688 | -1.87 | inactive |
| NAA40 (N-alpha-acetyltransferase 40, NatD catalytic subunit) | 1 | 2.51 | 20.6 | inactive |
| NAA40 (N-alpha-acetyltransferase 40, NatD catalytic subunit) | 2 | -0.674 | -1.77 | inactive |
| NAA40 (N-alpha-acetyltransferase 40, NatD catalytic subunit) | 3 | 9.09 | 66.9 | active |
| IFNAR2 (interferon alpha and beta receptor subunit 2) | 1 | 0.333 | 5.31 | inactive |
| IFNAR2 (interferon alpha and beta receptor subunit 2) | 2 | 0.17 | 4.16 | inactive |
| IFNAR2 (interferon alpha and beta receptor subunit 2) | 3 | 0.228 | 4.57 | inactive |
| AKAP11 (A-kinase anchoring protein 11) | 1 | -0.562 | -0.985 | inactive |
| AKAP11 (A-kinase anchoring protein 11) | 2 | 0.111 | 3.75 | inactive |
| AKAP11 (A-kinase anchoring protein 11) | 3 | -0.819 | -2.8 | inactive |

The list goes on (3 carried over from the part before).
| gene symbol | reagent no. | G2 robust z-score | G2 cells, % of GMNN control | call |
| --- | --- | --- | --- | --- |
| AKAP11 (A-kinase anchoring protein 11) | 1 | -0.562 | -0.985 | inactive |
| AKAP11 (A-kinase anchoring protein 11) | 2 | 0.111 | 3.75 | inactive |
| AKAP11 (A-kinase anchoring protein 11) | 3 | -0.819 | -2.8 | inactive |
| DCP2 (decapping mRNA 2) | 1 | 1.32 | 12.3 | inactive |
| DCP2 (decapping mRNA 2) | 2 | 1.78 | 15.5 | inactive |
| DCP2 (decapping mRNA 2) | 3 | -0.142 | 1.97 | inactive |
| NIN (ninein) | 1 | 1.44 | 13.1 | inactive |
| NIN (ninein) | 2 | 1.39 | 12.7 | inactive |
| NIN (ninein) | 3 | -1.16 | -5.22 | inactive |
| SND1-IT1 (SND1 intronic transcript 1) | 1 | -0.659 | -1.67 | inactive |
| SND1-IT1 (SND1 intronic transcript 1) | 2 | -0.791 | -2.6 | inactive |
| SND1-IT1 (SND1 intronic transcript 1) | 3 | -0.118 | 2.14 | inactive |
| KDM2A (lysine demethylase 2A) | 1 | 0.273 | 4.89 | inactive |
| KDM2A (lysine demethylase 2A) | 2 | 0.132 | 3.89 | inactive |
| KDM2A (lysine demethylase 2A) | 3 | 1.74 | 15.2 | inactive |
| SH2B1 (SH2B adaptor protein 1) | 1 | -0.964 | -3.81 | inactive |
| SH2B1 (SH2B adaptor protein 1) | 2 | -0.116 | 2.15 | inactive |
| SH2B1 (SH2B adaptor protein 1) | 3 | 1.76 | 15.4 | inactive |
| PAQR7 (progestin and adipoQ receptor family member 7) | 1 | 2.85 | 23 | inactive |
| PAQR7 (progestin and adipoQ receptor family member 7) | 2 | 1.01 | 10 | inactive |
| PAQR7 (progestin and adipoQ receptor family member 7) | 3 | 0.0117 | 3.05 | inactive |
| PCNX2 (pecanex 2) | 1 | 1.58 | 14.1 | inactive |
| PCNX2 (pecanex 2) | 2 | -0.235 | 1.31 | inactive |
| PCNX2 (pecanex 2) | 3 | -0.983 | -3.95 | inactive |
| IL7 (interleukin 7) | 1 | -1.06 | -4.48 | inactive |
| IL7 (interleukin 7) | 2 | -0.138 | 2 | inactive |
| IL7 (interleukin 7) | 3 | 1.77 | 15.4 | inactive |
| TRPS1 (transcriptional repressor GATA binding 1) | 1 | -0.21 | 1.49 | inactive |
| TRPS1 (transcriptional repressor GATA binding 1) | 2 | 2.26 | 18.8 | inactive |
| TRPS1 (transcriptional repressor GATA binding 1) | 3 | -0.455 | -0.232 | inactive |
| TRUB2 (TruB pseudouridine synthase family member 2) | 1 | 0.518 | 6.61 | inactive |
| TRUB2 (TruB pseudouridine synthase family member 2) | 2 | -1.1 | -4.81 | inactive |
| TRUB2 (TruB pseudouridine synthase family member 2) | 3 | -1.08 | -4.64 | inactive |
